Consider one molecule from CN113480646A.

Results are given in words; binding and its absence hold for the method and conditions named. Some entries that bind do so weakly or less than the wild type.

In the assay the target is 内源过表达的H1.4移码突变蛋白(H1.4 K157E fs*), Flag fusion expressed from pFLAG-CMV-H1.4 K157E fs* in NIH 3T3 cells. Put plainly: Western blot, 50 ug lysate of transfected NIH 3T3 cells. In general terms: A western blot detects proteins with antibodies after separation by electrophoresis.

B1: 特异性结合H1.4移码突变蛋白的单克隆抗体 (hybridoma cell line A1) (antibody, mouse IgG1, kappa, V domains shown)
VH: QIQLVQSGPELKKPGETVKISCKASGYTFTDYSMQWMKQAPGKGLKWMGWIDTGTGEPSYADDFKGRFAFSLETSASTAYLQINNLKNEDTATYFCARRSYGYFAFWGQGTLVAVSA
VL: DVVMTQTPLSLPVSLGDQASISCRSSQNIVHVNGNTYLEWYLQKPGQSPKLLIYKVSNRFSGVPDRFSGSGSGTEFTLKISRVEAEDLGVYYCFQGSHVPFTFGAGTKLELKR
Consider B1, for which the binding entry was “binds”.
